# Experimental data as given in PubChem BioAssay AID576 (NMMLSC, 2007).
# Hit rate of the full screen: of about 24,000 compounds, about 150 (0.62%) were called active. Inconclusive means that the source gave no clear call. Such entries were picked first, then a sample of the others.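 The calls were made as follows: active = fluorescence ratio above 2.44, which is 1 plus 3 SD of all ratios; inconclusive = signal too bright to measure linearly, ratio around 10 or more; inactive = fluorescence ratio below 2.44.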
# Experiment: intrinsic compound fluorescence with Jurkat cells – cell-based, flow cytometry, artefact control for VLA-4 allosteric ligand project, primary screen (AID 576);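 also: green fluorescence of cells measured with 488 nm excitation and 530 nm emission; tested at 10 µM compound in the well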
# Settings: compound autofluorescence, hits give high values, 1 = vehicle-only cell background
row,SMILES,fluorescence ratio
1,O=C(Nc1ccc2c(c1)OCO2)c1cnc2n(c1=O)CCS2,inconclusive: 10
2,CSc1ccc(C2C(C#N)=C(N)Oc3c2ccc(=O)c2c(C)oc(C)c32)cc1 (stereo not given),inconclusive: 10.6
3,Cn1c(N)c(C(=O)NCc2ccccc2)sc1=S,active: 4.06
4,Cc1ccc(Cn2ccc(NC(=O)c3cc(CC(C)C)on3)n2)cc1,inactive: 1
5,COc1ccc(Cl)cc1NC(=O)CSc1nnc(Cn2c(=O)sc3ccccc32)n1C,inactive: 0.81
6,O=C(NCc1ccco1)c1sc(=S)n2c1[nH]c(=O)c1ccccc12,inactive: 1.16
7,c1ccc2c(c1)CCCN2c1nc2ccccc2n2cnnc12,active: 2.64
8,COc1ccccc1N1CCN(c2nc3ccccc3n3nnnc23)CC1,inconclusive: 10.1
9,O=C(c1cnc2n(c1=O)CCS2)N1CCCc2ccccc21,inconclusive: 10
10,O=c1oc2c3c4c(cc2cc1-c1nc2ccccc2[nH]1)CCCN4CCC3,inconclusive: 10.1
11,NC1=CC(=O)c2cccc3cccc1c23,active: 3.49
12,COC(=O)c1ccc2c(c1)NC(=O)C(N1CCCC1)S2 (stereo not given),active: 4.98
13,COc1ccc(C2C=C(c3cccs3)Nc3nc(CCCO)nn32)cc1 (stereo not given),inconclusive: 10.1
14,c1ccc2c(c1)nc(N1CCOCC1)c1nnnn12,inconclusive: 10.5
15,CCSc1nnc(NC(=O)C2CCCN(S(=O)(=O)c3cnc[nH]3)C2)s1 (stereo not given),inactive: 1.05
16,CN1CC=C2C(C#N)=C(N)C(C#N)(C#N)C(c3cccc(Cl)c3Cl)C2C1 (stereo not given),active: 2.73
17,CCCN(CCC)CCCNS(=O)(=O)c1ccc2c(c1)oc(=O)n2C,active: 3.7
18,CCN(CC)c1ccc2cc(-c3nc4ccccc4[nH]3)c(=O)oc2c1,inconclusive: 13.8
19,Cc1csc(NC(=O)c2sc3nc(-c4cccs4)ccc3c2N)n1,inconclusive: 13.6
20,COc1cc(/C=C/C(=O)CC(=O)/C=C/c2ccc(O)c(OC)c2)ccc1O,inconclusive: 13.7
21,OCCCc1nc2n(n1)C(c1ccccc1Cl)C=C(c1cccs1)N2 (stereo not given),inconclusive: 10.1
22,Cc1ccc(-c2csc3ncn(-n4c(C)ccc4C)c(=O)c23)o1,inactive: 1.08
23,N#Cc1ccc(NC(=O)c2cc3cc4c5c(c3oc2=N)CCCN5CCC4)cc1,inconclusive: 10
24,Cc1ccc(CNc2nc3ccccc3n3nnnc23)cc1,inconclusive: 10
25,CCN(CC)S(=O)(=O)c1ccc(Nc2nc3ccccc3n3nnnc23)cc1,active: 3.24
26,N=c1oc2c3c4c(cc2cc1C(=O)Nc1ccccc1)CCCN4CCC3,inconclusive: 10
27,CCCc1cc(-n2ccnc2)n2c(nc3ccccc32)c1C#N,inconclusive: 10.7
28,CCN(CC)c1ccc2c(c1)CCCN2,active: 4.49

# Reprinted from the entries so far for reference:
row,SMILES,fluorescence ratio
19,Cc1csc(NC(=O)c2sc3nc(-c4cccs4)ccc3c2N)n1,inconclusive: 13.6
20,COc1cc(/C=C/C(=O)CC(=O)/C=C/c2ccc(O)c(OC)c2)ccc1O,inconclusive: 13.7

# (cont.)

row,SMILES,fluorescence ratio
1,CCN(CC)C(=O)c1sc2nc(-c3cccs3)cc(-c3cccs3)c2c1N,inconclusive: 14.2
2,Cc1nnc(SCc2nc3ccccc3s2)n1-c1ccccc1,active: 2.8
3,CCN(CC)CCCNC(=O)c1cc(-c2ccc(O)cc2)on1,inactive: 0.98
4,CCc1c(C)sc(NC(=O)c2cc(-c3ccco3)on2)c1C#N,inactive: 1.04
5,Cc1cc(C(=O)O)c(S(C)(=O)=O)s1,inconclusive: 10
6,Cc1n[nH]c(C)c1S(=O)(=O)N1CCN(C(=O)c2ccco2)CC1,inactive: 1.04
7,Cc1c(CCC#N)c(N2CCN(C3CCCCC3)CC2)n2c(nc3ccccc32)c1C#N,active: 8.58
8,COC(=O)CSCc1nc2ccccc2[nH]c1=O,inconclusive: 10.4
9,O=C(Nc1cccnc1)C1CCCN(S(=O)(=O)c2cccc3nsnc23)C1 (stereo not given),inactive: 1.01
10,O=S1(=O)C=C(Sc2nc3cc(Cl)ccc3o2)c2ccccc21,active: 9.62
11,O=C1CCC(c2ccccc2)N1C(=O)c1cccnc1 (stereo not given),inactive: 1.02
12,CCOC(=O)c1cn2c3c(c(F)c(F)c(F)c3c1=O)SC(N1CCCC1)=N2,inconclusive: 10.6
13,CCOc1ccc(NC(=O)CN2C(=O)C3CCCN3C2=O)cc1 (stereo not given),inactive: 1.08
14,Cc1ccc2c(c1C)NC(C(=O)O)C1CC=CC21 (stereo not given),inconclusive: 15
15,CC1(C)Oc2ccc3ccc(=O)oc3c2/C(=C/NCCO)C1=O,inactive: 1.15
16,CCOc1cc(C2NC(=O)N(C)C(C)=C2C(=O)OC)cc(Br)c1O (stereo not given),active: 4.35
17,COc1cccc2c1C(=O)c1c(O)c3c(c(O)c1C2=O)C[C@@](O)(C(=O)CO)C[C@@H]3O[C@H]1C[C@H](N)[C@H](O)[C@H](C)O1,active: 6.26
18,CCOc1ccc(S(=O)(=O)N2CCc3ccccc3C2)cc1,active: 3.23
19,c1ccc(N2CCN(c3nc4ccccc4n4nnnc34)CC2)cc1,inconclusive: 10.1
20,O=C1c2ccccc2-c2ncnc3c(N4CCOCC4)cc(N4CCOCC4)c1c23,inconclusive: 10
21,COc1ccc(-n2ncc3c(N4CCN(c5cccc(C)c5C)CC4)ncnc32)cc1,inactive: 1.01
22,CCN1CCN(CCCNC(=O)C(NC(=O)C2CCC(C)CC2)C(C)C)CC1 (stereo not given),inconclusive: 11.4
23,Fc1ccccc1N1CCN(c2nc3ccccc3n3nnnc23)CC1,inconclusive: 10.1
24,CCc1ccc(-c2nc(CN3CCC(C(=O)N4CCN(c5ccccn5)CC4)CC3)c(C)o2)cc1,inactive: 1.26
25,COc1cccc2c1C(=O)c1c(O)c3c(c(O)c1C2=O)C[C@@](O)(C(C)=O)C[C@@H]3O[C@H]1C[C@H](N)[C@H](O)[C@H](C)O1,inconclusive: 10.3
26,CCOC(=O)N1CCC(NC(=O)c2cccc3c2C(=O)N(c2ccc(OC)cc2)C3)CC1,inactive: 1.13
27,CCc1ccc(NS(=O)(=O)c2cccs2)cc1,inconclusive: 11.2
